The assay has as its target RETREG1 GFP1-10 (UniProt Q9H6L5). Description: split reporter.

Sequences of proteins named here, by UniProt entry; tags and fusion partners are left off. Residues count along the entry.
UniProt Q9H6L5: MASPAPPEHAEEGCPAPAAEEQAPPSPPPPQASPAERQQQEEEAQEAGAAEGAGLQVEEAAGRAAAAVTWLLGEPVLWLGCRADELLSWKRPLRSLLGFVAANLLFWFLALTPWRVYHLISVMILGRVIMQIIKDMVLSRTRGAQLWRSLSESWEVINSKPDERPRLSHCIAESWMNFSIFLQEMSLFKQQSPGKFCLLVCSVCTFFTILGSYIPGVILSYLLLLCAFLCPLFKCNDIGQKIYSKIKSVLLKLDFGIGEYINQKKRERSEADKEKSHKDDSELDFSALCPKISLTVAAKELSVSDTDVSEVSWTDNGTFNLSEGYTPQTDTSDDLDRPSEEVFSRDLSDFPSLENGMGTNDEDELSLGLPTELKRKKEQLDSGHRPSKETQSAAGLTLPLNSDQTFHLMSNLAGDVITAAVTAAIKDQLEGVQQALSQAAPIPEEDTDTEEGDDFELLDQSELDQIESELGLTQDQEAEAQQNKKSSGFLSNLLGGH
UniProt P59826, residues 17-472: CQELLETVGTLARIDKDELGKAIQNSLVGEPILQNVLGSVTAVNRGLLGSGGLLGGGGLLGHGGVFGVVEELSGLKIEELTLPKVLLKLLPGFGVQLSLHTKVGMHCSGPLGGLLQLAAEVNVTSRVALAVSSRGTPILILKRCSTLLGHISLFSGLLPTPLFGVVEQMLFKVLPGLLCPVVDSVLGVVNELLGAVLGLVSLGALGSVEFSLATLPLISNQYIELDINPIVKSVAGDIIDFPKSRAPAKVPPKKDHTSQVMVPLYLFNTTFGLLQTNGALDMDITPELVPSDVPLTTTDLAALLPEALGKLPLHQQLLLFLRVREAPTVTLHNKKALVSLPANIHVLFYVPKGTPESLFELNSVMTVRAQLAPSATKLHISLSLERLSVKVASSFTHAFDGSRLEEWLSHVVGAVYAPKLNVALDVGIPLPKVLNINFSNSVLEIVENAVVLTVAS

Results are given in words; binding and its absence hold for the method and conditions named. In cells and extracts the contact can be indirect. Some entries that bind do so weakly or less than the wild type.

Turning to “BPIFB3 GFP11 (from UniProt P59826 17-472)”, the binding result is “binds”.

Values taken from article doi:10.1101/333435.
